According to PMC10432976:

Molecular target: HA-tagged LRR domain of LRRFIP2
Test: co-IP; HA-tagged LRR domains and Flag-TRB3 coexpressed in HepG2 cells; HA immunoprecipitation, Western blot for Flag-TRB3; without or with LPS 10 ng/ml for 30 min

binding: no binding
B1: Flag-TRB3 (coexpressed in HepG2 cells) (protein, UniProt Q8K4K2 1-354)
chain: MRATPLAASADVSCRKKPLEFDDNIDAKCPVLKRVRDEPEPGPLPSLLPPSPPPASDLSPAVAPATRLGPYILLEREQGSCSYRALHCPTGTEYTCKVYPASEAQAVLAPYARLPTHQHVARPTEVLLGSRLLYIFFTKTHGDLHSLVRSRRGIPESEAAGLFRQMASAVAHCHKHGLVLRDLKLRRFVFSNCERTKLVLENLEDACVMTGSDDSLWDKHACPAYVGPEILSSRPSYSGKAADVWSLGVALFTMLAGRYPFHDSEPVLLFGKIRRGTFALPEGLSAPARCLIRCLLRKEPSERLVALGILLHPWLREDHGRVSPPQSDRREMDQVVPDGPQLEEAEEGEVGLYG

No constants are given. Whether binding was seen depends on the method and setting. Binding seen in cells or lysates may run through a third protein. Tags and fused reporters may be left off the sequences shown.
